Results deposited as PubChem BioAssay AID1259254 (NCATS, 2017)
Aim: 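Gene knock-downs that lead to re-replication, shown by excess G2 DNA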 (primary screen). Cell system: human HCT116 colorectal cancer cells. Knock-down reagent: single siRNA against human genes. Time to read-out: 3 days. Measurement: 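Imaged Hoechst DNA stain sorts each cell into a cycle phase by DNA amount; per plate, G2 fraction set to 0% for non-targeting and 100% for GMNN siRNA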. Reading the numbers: G2 robust z-score and G2 cells, % of GMNN control: higher = more G2 cells, more excess DNA replication. Call rule: 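Active siRNAs have a G2 robust z of 5 or more median absolute deviations over the median, which in these data means about 38% or higher of GMNN control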.
Here is an unselected part of about 59,000 deposited reagents. In the full data, about 1,550 (2.6%) got an active call. 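G2 share is only a proxy for re-replication; each gene was hit by three separate siRNAs, and active genes were retested.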 Reagents against one gene are numbered here. Not all columns of the deposit are shown. Reagent sequences are not shown. Not stated in the record: the amount of reagent.

| gene | siRNA no. | G2 robust z-score | G2 cells, % of GMNN control | activity call |
| --- | --- | --- | --- | --- |
| SLC32A1 | 1 | -0.184 | 1.67 | inactive |
| SLC32A1 | 2 | -0.276 | 1.03 | inactive |
| SLC32A1 | 3 | 0.931 | 9.52 | inactive |
| ALLC (allantoicase) | 1 | -0.785 | -2.56 | inactive |
| ALLC (allantoicase) | 2 | 0.645 | 7.51 | inactive |
| ALLC (allantoicase) | 3 | -0.792 | -2.6 | inactive |
| LOC730179 (retired record) | 1 | 0.142 | 3.97 | inactive |
| LOC730179 (retired record) | 2 | -0.0612 | 2.54 | inactive |
| LOC730179 (retired record) | 3 | 0.799 | 8.59 | inactive |
| ARMC10 (armadillo repeat containing 10) | 1 | 1.06 | 10.4 | inactive |
| ARMC10 (armadillo repeat containing 10) | 2 | -0.773 | -2.47 | inactive |
| ARMC10 (armadillo repeat containing 10) | 3 | -0.341 | 0.568 | inactive |
| CDC27 (cell division cycle 27) | 1 | 4.63 | 35.6 | inactive |
| CDC27 (cell division cycle 27) | 2 | 6.22 | 46.7 | active |
| CDC27 (cell division cycle 27) | 3 | 4.24 | 32.8 | inactive |
| HDHD3 (haloacid dehalogenase like hydrolase domain containing 3) | 1 | -0.287 | 0.95 | inactive |
| HDHD3 (haloacid dehalogenase like hydrolase domain containing 3) | 2 | -0.861 | -3.09 | inactive |
| HDHD3 (haloacid dehalogenase like hydrolase domain containing 3) | 3 | -0.56 | -0.969 | inactive |
| RBFA (ribosome binding factor A) | 1 | -0.736 | -2.21 | inactive |
| RBFA (ribosome binding factor A) | 2 | 2.29 | 19.1 | inactive |
| RBFA (ribosome binding factor A) | 3 | 0.595 | 7.15 | inactive |
| ORC2 (origin recognition complex subunit 2) | 1 | -0.869 | -3.15 | inactive |
| ORC2 (origin recognition complex subunit 2) | 2 | -0.664 | -1.7 | inactive |
| ORC2 (origin recognition complex subunit 2) | 3 | 6.32 | 47.5 | active |
| CYTL1 (cytokine like 1) | 1 | 0.186 | 4.28 | inactive |
| CYTL1 (cytokine like 1) | 2 | 1.01 | 10 | inactive |
| CYTL1 (cytokine like 1) | 3 | -0.437 | -0.109 | inactive |
| FBXL22 (F-box and leucine rich repeat protein 22) | 1 | 4.1 | 31.8 | inactive |
| FBXL22 (F-box and leucine rich repeat protein 22) | 2 | 0.0979 | 3.66 | inactive |
| FBXL22 (F-box and leucine rich repeat protein 22) | 3 | -0.528 | -0.75 | inactive |
